Laboratory results: PubChem BioAssay AID540276 (National Center for Advancing Translational Sciences (NCATS), 2011)
Screen size: about 300,000 compounds; about 5,400 (1.8%) were called active. Inconclusive results, whose numbers are uncertain, are shown with a selection of clear calls. The call rests on the fitted dose curve; tested in HEK293 cells. Potencies beside an inconclusive call are fits to weak or partial responses and may not hold up.

Assay: qHTS for inhibitors of binding or entry into cells for Marburg Virus
Conditions: Marburg virus pseudotyped entry inhibition, cell reporter; series mostly up to 37.8 µM
Potency means the concentration at half of the fitted maximal effect.

| Compound | Potency |
| --- | --- |
| CCC(=O)Nc1cc2nn(-c3ccccc3)nc2cc1Cl | inconclusive: 2.82 µM [inhibitor, full curve, poor fit] |
| Cc1ccc(-c2cc(C(=O)N3CCN(c4ccc(F)cc4)CC3)c3ccccc3n2)o1 | inconclusive: 14.1 µM [inhibitor, partial curve, poor fit] |
| O=C(NC1CCCCC1)N1CCN(c2nc(-c3ccccc3)cs2)CC1 | inconclusive: 0.112 µM [inhibitor, full curve, poor fit] |
| COc1ccc(S(=O)(=O)N2CCCCCC2)cc1C(=O)N(C)CC(=O)Nc1cc(C)ccc1C | inconclusive: 35.5 µM [inhibitor, single point] |
| Cc1c(C(=O)OCC(=O)N2CCCC(C)C2)oc2ccccc12 (stereo not drawn) | inconclusive: 35.5 µM [inhibitor, single point] |
| COc1cccc(C2(O)CC(C(F)(F)F)=NN2C(=O)c2ccccn2)c1 (stereo not drawn) | inconclusive: 1.12 µM [activator, partial curve, poor fit] |
| Cc1cc(C)n2nc(CC(=O)NCc3ccccc3Cl)nc2n1 | inactive |
| COc1ccc(/C=N/NC(N)=S)cc1OC(=O)c1cccc2ccccc12 | inconclusive: 14.1 µM [inhibitor, partial curve, poor fit] |
| O=C(Nc1ccc(/C=C/c2nc3ccccc3o2)cc1)c1ccc(F)cc1 | inactive |
| CC(C)(C)N1C(=O)[C@H]2[C@H]3[C@H](O)[C@H](O)C/C(=N/OCc4ccccc4)[C@H]3CC[C@@H]2C1=O | inactive |
| Cc1cc(C)n2nc(SCCOc3ccccc3F)nc2n1 | inactive |
| CCOC(=O)/C=C(/C)N1N=C(c2ccc(OC)cc2)CC1c1cccc([N+](=O)[O-])c1 (stereo not drawn) | inactive |
| Cc1cccc(NC(=O)c2cc(Cl)sc2Cl)c1C | inconclusive: 0.355 µM [activator, partial curve, poor fit] |
| CCOC(=O)C1CCCN(CC(=O)Nc2c(C(=O)OC)[nH]c3ccc(Br)cc23)C1 (stereo not drawn) | inconclusive: 35.5 µM [inhibitor, single point] |
| Cc1nc(C(C)N(C)Cc2nc(-c3ccc4c(c3)OCO4)no2)c(C)s1 (stereo not drawn) | inconclusive: 6.31 µM [activator, single point] |
| Cc1ccc(S(=O)(=O)N(C)CC(=O)OCC(=O)NCCc2ccc(S(N)(=O)=O)cc2)cc1 | inconclusive: 3.16 µM [activator, partial curve, poor fit] |
| O=C(c1ccc(N2CCN(C(=O)c3ccccc3Br)CC2)cc1)c1cccc(F)c1 | inconclusive: 35.5 µM [inhibitor, single point] |
| Cn1c(=O)n(Cc2ccc(Br)cc2)c2ccccc21 | inconclusive: 22.4 µM [inhibitor, single point] |
| O=C(NC(=S)NCc1ccccc1)C1CC1 | inactive |
| O=C(C1CCCN(S(=O)(=O)c2cccc3nsnc23)C1)N1CCN(c2ccccn2)CC1 (stereo not drawn) | inconclusive: 28.2 µM [inhibitor, single point] |
| O=C(Nn1c(-c2ccc(Br)cc2)nc2ccccc2c1=O)c1ccc([N+](=O)[O-])cc1 | inactive |
| O=C(OCCN1C(=O)c2ccccc2C1=O)c1ccccc1 | inactive |

Some of the entries so far, with tabs.
Compound	Potency
O=C(c1ccc(N2CCN(C(=O)c3ccccc3Br)CC2)cc1)c1cccc(F)c1	inconclusive: 35.5 µM [inhibitor, single point]
Cn1c(=O)n(Cc2ccc(Br)cc2)c2ccccc21	inconclusive: 22.4 µM [inhibitor, single point]
O=C(NC(=S)NCc1ccccc1)C1CC1	inactive
O=C(C1CCCN(S(=O)(=O)c2cccc3nsnc23)C1)N1CCN(c2ccccn2)CC1 (stereo not drawn)	inconclusive: 28.2 µM [inhibitor, single point]

Next results follow:

| Compound | Potency |
| --- | --- |
| CCOC(=O)c1[nH]c(=O)[nH]c1COC(=O)c1cc2ccccc2o1 | inactive |
| COc1ccccc1-n1c(-c2ccccc2F)nc2ccccc2c1=O | inconclusive: 35.5 µM [inhibitor, single point] |
| N=c1n(Cc2ccc(Cl)cc2)c2ccccc2n1CC(O)COc1ccccc1 (stereo not drawn) | inconclusive: 11.2 µM [inhibitor, partial curve, poor fit] |
| CN1CCN(S(=O)(=O)c2ccc(NC(=O)c3cccc(S(=O)(=O)N4CCCC4)c3)cc2)CC1 | inactive |
| c1ccc2c(N3CCCCCC3)nc(-c3ccncc3)nc2c1 | inconclusive: 22.4 µM [inhibitor, partial curve, poor fit] |
| COc1ccc(C(=O)O/N=C(\N)c2ccccn2)cc1 | inconclusive: 1.78 µM [inhibitor, full curve, poor fit] |
| O=C(Nc1ccc(Br)cc1Cl)c1ccc(OCC2CCCO2)cc1 (stereo not drawn) | inconclusive: 11.2 µM [inhibitor, partial curve, poor fit] |
| COc1cccc(CN(C)C(=O)c2cc(S(=O)(=O)N3CCN(c4ccccc4)CC3)ccc2Cl)c1 | inconclusive: 12.6 µM [inhibitor, single point] |
| CC(C)Oc1ccc(CC2CC(=O)NC2=O)cc1 (stereo not drawn) | inconclusive: 35.5 µM [activator, single point] |
| COc1cccc(-c2csc(NNC(=O)c3cccs3)n2)c1 | inactive |
| CC(C)c1ccccc1OCC(=O)NC1CCCc2ccccc21 (stereo not drawn) | inconclusive: 10 µM [inhibitor, single point] |
| O=C(Nc1cccnc1)c1cc(S(=O)(=O)N2CCCCC2)c(Cl)cc1Cl | inactive |
| COC(=O)/C=C/C(=O)N1CCN(c2cccc(Cl)c2)CC1 | inconclusive: 25.9 µM [inhibitor, single point] |
| CCOC(=O)c1c(C)[nH]c(/C(C)=N\O)c1C | inconclusive: 8.91 µM [inhibitor, single point] |
| CCOc1ccc(S(=O)(=O)N2CCC(C(=O)N3CCCC3)CC2)cc1C | inactive |
| Cc1nc2nc(C)c(NS(=O)(=O)c3ccc(Cl)cc3)c(=O)n2[nH]1 | inconclusive: 6.31 µM [inhibitor, single point] |
| Cc1cc(NC(=O)Cn2nc([N+](=O)[O-])c(Br)c2C)no1 | inconclusive: 2.82 µM [inhibitor, partial curve, poor fit] |
| Cc1ccc(C)c2[nH]c(=O)c(C(c3nnnn3C(C)(C)C)N3CC=C(c4ccc(F)cc4)CC3)cc12 (stereo not drawn) | inactive |
| Cc1ccc(S(=O)(=O)NN2C(=O)/C(=C/c3ccccn3)SC2=S)cc1 | inconclusive: 29.1 µM [activator, single point] |
| OC1(c2ccc(F)cc2)CN(c2ccccc2)C2=[N+]1CCS2 (stereo not drawn) | inconclusive: 2.51 µM [inhibitor, partial curve, poor fit] |
| Cn1cnc([N+](=O)[O-])c1NC(C)(C)C | inactive |
